{
  "source": "patent EP0123700A1",
  "about": "“Substituted picolinic acids, processes for their preparation, their use, and pharmaceutical preparations containing them” (Byk Gulden Lomberg Chemische Fabrik GmbH, priority 1983, dated 1984)",
  "system": "genetisch hypertonen Ratten",
  "assay": "Antihypertensive effect: systolic blood pressure (tail cuff) in conscious genetically hypertensive rats, oral dosing once daily on four consecutive days",
  "assay_type": "in vivo, Ratten (Stamm SHR/N/Ibm/Bm)",
  "experimental": "Zur Bestimmung der äntihypertensiven Wirkung werden die unten aufgeführten Verbindungen in den angegebenen Dosen an vier aufeinander folgenden Tagen an je 6 Ratten (Stamm SHR/N/Ibm/Bm, ♂, 250-350 g) mit genetisch bedingtem Hochdruck (RR > 180 mmHg) täglich einmal mittels Schlundsonde verabfolgt. Die Messung des Blutdrucks erfolgt jeweils 2, 6 und gegebenenfalls 24 Stunden nach Substanzgabe.\nDie Blutdruckmessung wird in einer Wärmekammer bei 36°C vorgenommen, um eine bessere Durchblutung der Schwanzarterie zu erreichen. Hierzu werden die Tiere in perforierte Lochblechkäfige verbracht und 20 - 40 Min. nach Beginn der Aufwärmung gemessen. Zur Messung des systolischen arteriellen Drucks wird eine ringförmige Manschette mit aufblasbarer Gummimembran zur Unterbindung der Durchblutung und ein ringförmiger Piezökristallaufnehmer zur Erfassung der Pulswellen auf den Schwanz aufgeschoben. Nach erfolgter Unterbindung des Blutstroms in der Schwanzarterie wird der Manschettendruck kontinuierlich reduziert. […] Pulssignale und Druckverlauf werden zur Auswertung graphisch aufgezeichnet.\nZur Gewöhnung an den Meßvorgang werden die Tiere vor Substanzprüfung 14 Tage traniniert. In der zweiten Trainingswoche werden Blutdruck-Vorwerte erhoben. Tiergruppen, die Substanz erhälten, werden gegen eine Kontrollgruppe geprüft.",
  "note": "For at least one compound, name, drawing or mass did not settle the structure.",
  "data": [
    {"compound": "CCCCc1ccc(C(=O)OCCCN2CCN(c3ccccc3OC)CC2)nc1", "note": "[Beispiel 3, 5-n-Butylpyridin-2-carbonsäure-(3-[4-(2-methoxyphenyl)-piperazinyl-1]-propyl)-ester]", "values": [
      {"measurement": "BP (%-Änderungen)", "setting": "9,25 mg/kg p.o., day 1, 2h", "value": -2, "unit": "%"},
      {"measurement": "BP (%-Änderungen)", "setting": "9,25 mg/kg p.o., day 1, 6h", "value": -3, "unit": "%"},
      {"measurement": "BP (%-Änderungen)", "setting": "9,25 mg/kg p.o., day 1, 24h", "value": -3, "unit": "%"},
      {"measurement": "BP (%-Änderungen)", "setting": "9,25 mg/kg p.o., day 2, 6h", "value": -9, "unit": "%"},
      {"measurement": "BP (%-Änderungen)", "setting": "9,25 mg/kg p.o., day 3, 6h", "value": -10, "unit": "%"},
      {"measurement": "BP (%-Änderungen)", "setting": "9,25 mg/kg p.o., day 3, 24h", "value": -2, "unit": "%"},
      {"measurement": "BP (%-Änderungen)", "setting": "9,25 mg/kg p.o., day 4, 2h", "value": -9, "unit": "%"},
      {"measurement": "BP (%-Änderungen)", "setting": "9,25 mg/kg p.o., day 4, 6h", "value": -10, "unit": "%"},
      {"measurement": "BP (%-Änderungen)", "setting": "18,5 mg/kg p.o., day 1, 2h", "value": -10, "unit": "%"},
      {"measurement": "BP (%-Änderungen)", "setting": "18,5 mg/kg p.o., day 1, 6h", "value": -9, "unit": "%"},
      {"measurement": "BP (%-Änderungen)", "setting": "18,5 mg/kg p.o., day 1, 24h", "value": -2, "unit": "%"},
      {"measurement": "BP (%-Änderungen)", "setting": "18,5 mg/kg p.o., day 2, 6h", "value": -16, "unit": "%"},
      {"measurement": "BP (%-Änderungen)", "setting": "18,5 mg/kg p.o., day 3, 6h", "value": -19, "unit": "%"},
      {"measurement": "BP (%-Änderungen)", "setting": "18,5 mg/kg p.o., day 3, 24h", "value": -1, "unit": "%"},
      {"measurement": "BP (%-Änderungen)", "setting": "18,5 mg/kg p.o., day 4, 2h", "value": -13, "unit": "%"},
      {"measurement": "BP (%-Änderungen)", "setting": "18,5 mg/kg p.o., day 4, 6h", "value": -15, "unit": "%"}
    ]}
  ]
}
